Holding throughout (assay): affinity purification with mass spectrometry; co-IP from SK-BR-3 cells overexpressing TMEM120B or TMEM120B-ΔCCD, gel pieces analysed by nano-LC-MS/MS
Test [1] concerns the target T1, TMEM120B-Myc (pCMV6-TMEM120B-Myc), full length (human) (UniProt A0PK00).
T1 sequence: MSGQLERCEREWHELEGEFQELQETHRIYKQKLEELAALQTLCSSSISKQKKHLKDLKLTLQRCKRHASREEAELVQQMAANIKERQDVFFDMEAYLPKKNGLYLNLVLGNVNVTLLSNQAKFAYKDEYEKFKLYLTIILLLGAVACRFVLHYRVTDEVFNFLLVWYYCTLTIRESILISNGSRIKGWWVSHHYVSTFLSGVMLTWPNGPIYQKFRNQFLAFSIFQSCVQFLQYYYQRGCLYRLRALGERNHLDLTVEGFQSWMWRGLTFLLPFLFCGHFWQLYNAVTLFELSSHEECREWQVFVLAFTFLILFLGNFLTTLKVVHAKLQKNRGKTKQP

Sequences of proteins named here, by UniProt entry; tags and fusion partners are left off.
UniProt Q8IWT3: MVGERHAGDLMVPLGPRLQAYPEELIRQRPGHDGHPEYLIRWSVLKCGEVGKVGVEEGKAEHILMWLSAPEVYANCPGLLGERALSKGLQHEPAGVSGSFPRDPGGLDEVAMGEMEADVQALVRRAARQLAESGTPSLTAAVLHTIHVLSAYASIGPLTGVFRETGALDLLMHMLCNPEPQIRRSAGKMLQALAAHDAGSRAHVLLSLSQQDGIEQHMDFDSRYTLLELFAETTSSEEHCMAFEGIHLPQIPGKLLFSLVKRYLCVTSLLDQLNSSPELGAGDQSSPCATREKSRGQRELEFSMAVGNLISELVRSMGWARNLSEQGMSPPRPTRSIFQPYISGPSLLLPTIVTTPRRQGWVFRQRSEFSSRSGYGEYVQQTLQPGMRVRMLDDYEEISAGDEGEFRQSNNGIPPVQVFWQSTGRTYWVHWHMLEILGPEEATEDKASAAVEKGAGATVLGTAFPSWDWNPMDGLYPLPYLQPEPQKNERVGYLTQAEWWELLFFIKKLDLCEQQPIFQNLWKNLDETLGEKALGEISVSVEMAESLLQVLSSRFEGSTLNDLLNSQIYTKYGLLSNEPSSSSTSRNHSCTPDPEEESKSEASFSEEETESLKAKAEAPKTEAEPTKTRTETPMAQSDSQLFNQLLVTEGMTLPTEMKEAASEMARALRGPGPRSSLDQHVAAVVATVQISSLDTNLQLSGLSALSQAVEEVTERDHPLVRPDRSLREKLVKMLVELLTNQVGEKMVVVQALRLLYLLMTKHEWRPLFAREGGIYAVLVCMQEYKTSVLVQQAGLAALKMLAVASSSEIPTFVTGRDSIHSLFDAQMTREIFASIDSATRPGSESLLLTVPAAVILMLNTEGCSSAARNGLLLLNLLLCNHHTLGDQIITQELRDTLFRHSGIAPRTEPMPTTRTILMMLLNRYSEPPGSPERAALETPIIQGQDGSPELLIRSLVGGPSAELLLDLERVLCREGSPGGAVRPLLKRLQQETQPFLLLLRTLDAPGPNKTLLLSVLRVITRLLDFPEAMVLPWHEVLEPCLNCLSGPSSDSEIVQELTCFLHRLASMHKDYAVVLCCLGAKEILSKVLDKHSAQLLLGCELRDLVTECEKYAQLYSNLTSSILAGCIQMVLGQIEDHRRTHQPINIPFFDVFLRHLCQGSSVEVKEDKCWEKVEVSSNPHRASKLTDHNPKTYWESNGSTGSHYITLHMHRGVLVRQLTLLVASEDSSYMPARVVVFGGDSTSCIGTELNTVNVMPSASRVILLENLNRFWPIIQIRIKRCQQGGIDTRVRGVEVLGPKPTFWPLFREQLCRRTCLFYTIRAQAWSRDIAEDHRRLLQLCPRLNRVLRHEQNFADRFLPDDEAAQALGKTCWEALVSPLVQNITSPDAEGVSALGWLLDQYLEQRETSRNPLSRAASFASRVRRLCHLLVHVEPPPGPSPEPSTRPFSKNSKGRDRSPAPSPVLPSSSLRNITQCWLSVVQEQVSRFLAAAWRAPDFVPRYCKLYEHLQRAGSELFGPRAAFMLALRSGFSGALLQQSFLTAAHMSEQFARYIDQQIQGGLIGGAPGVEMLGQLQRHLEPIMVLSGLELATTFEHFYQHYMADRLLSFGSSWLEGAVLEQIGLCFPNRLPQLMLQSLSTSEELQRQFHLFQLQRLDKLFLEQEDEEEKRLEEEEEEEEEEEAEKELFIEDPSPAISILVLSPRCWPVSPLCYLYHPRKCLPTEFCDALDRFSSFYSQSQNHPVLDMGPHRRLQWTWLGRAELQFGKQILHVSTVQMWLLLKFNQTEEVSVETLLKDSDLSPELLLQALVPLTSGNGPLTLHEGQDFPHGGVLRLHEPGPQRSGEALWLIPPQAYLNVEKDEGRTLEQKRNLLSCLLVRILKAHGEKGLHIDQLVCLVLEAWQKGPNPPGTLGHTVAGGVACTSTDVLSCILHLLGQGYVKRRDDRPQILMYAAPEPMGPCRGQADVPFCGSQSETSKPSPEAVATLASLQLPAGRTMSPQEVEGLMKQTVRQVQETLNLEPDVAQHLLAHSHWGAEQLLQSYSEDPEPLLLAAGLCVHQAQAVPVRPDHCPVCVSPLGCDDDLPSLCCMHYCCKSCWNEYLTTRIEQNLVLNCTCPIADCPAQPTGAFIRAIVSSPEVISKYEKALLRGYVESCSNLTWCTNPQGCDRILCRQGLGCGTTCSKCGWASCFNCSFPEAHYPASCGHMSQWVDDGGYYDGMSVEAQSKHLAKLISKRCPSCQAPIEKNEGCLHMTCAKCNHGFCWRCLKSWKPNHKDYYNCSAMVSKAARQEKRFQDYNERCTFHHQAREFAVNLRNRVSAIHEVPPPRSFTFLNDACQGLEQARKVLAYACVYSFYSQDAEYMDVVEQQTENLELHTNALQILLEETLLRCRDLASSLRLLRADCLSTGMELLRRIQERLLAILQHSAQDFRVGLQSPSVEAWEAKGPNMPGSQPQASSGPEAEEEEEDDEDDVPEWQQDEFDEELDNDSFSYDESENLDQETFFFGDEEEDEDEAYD
UniProt P35579: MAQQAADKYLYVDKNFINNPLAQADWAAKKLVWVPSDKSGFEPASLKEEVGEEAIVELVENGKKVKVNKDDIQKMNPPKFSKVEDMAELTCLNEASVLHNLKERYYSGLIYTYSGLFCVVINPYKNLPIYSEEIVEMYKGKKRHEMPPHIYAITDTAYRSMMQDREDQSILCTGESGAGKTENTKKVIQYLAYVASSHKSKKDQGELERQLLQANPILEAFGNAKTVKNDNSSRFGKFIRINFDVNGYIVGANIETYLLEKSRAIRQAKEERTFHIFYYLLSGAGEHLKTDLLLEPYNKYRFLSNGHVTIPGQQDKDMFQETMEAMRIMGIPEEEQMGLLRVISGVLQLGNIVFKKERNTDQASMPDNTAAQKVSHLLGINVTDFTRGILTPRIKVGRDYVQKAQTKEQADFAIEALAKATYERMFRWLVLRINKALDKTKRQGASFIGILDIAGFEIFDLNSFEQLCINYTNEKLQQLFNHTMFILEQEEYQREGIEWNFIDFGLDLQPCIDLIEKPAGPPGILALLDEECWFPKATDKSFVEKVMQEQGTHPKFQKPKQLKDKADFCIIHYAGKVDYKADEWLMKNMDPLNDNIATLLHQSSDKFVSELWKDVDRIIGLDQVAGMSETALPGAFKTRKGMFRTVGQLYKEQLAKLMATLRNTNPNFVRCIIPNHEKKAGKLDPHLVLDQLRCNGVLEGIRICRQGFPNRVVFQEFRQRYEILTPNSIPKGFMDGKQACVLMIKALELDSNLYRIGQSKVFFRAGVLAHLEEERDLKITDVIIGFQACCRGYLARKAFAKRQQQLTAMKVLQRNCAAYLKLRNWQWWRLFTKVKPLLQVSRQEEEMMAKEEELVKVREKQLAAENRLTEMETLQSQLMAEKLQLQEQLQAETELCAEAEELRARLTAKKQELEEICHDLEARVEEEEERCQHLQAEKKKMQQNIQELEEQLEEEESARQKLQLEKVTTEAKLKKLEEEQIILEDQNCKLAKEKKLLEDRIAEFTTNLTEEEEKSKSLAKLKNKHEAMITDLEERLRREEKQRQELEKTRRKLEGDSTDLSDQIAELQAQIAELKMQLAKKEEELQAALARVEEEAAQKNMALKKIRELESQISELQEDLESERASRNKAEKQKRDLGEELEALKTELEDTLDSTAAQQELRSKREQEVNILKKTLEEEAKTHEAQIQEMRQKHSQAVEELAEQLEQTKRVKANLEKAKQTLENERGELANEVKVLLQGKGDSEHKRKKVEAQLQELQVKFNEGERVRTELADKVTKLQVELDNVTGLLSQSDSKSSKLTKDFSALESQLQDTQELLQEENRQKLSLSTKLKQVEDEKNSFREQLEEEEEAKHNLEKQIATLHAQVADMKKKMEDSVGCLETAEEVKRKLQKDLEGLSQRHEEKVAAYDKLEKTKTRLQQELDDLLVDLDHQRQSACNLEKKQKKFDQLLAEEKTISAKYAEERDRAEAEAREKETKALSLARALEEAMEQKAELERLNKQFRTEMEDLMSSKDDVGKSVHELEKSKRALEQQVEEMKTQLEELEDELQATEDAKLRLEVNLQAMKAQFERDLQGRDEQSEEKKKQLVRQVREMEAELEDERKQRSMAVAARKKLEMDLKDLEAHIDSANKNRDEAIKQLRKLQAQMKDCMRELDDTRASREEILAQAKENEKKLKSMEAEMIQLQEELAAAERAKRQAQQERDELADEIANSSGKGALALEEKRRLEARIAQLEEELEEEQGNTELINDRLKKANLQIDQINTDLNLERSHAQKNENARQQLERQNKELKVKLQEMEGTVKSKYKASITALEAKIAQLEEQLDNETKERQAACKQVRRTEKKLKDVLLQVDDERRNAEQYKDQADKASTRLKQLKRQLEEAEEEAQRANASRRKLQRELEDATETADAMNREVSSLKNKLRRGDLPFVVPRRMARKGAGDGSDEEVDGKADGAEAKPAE

The target in test [2] is T1, TMEM120B-Myc (pCMV6-TMEM120B-Myc), full length (human). The source holds these as a separate data set.
For test [3], the target named is TMEM120B-ΔCCD-Myc (pCMV6-TMEM120B-ΔCCD-Myc) (human).

Read-outs that look alike come from different tables or passages of the source. No constants are given. Whether binding was seen depends on the method and setting. Binding seen in cells or lysates may run through a third protein. A yes stands for co-enrichment or nearness to the bait. Other partners may have been found. For some of these results: No binding means not detected with the bait. For some of these results: Sequences can lack the tags named with a protein.

Turning to “CUL9, endogenous in SK-BR-3 cells (from UniProt Q8IWT3 1-2517)”, the binding entry in test [1] was “binds”. As to “Myosin heavy chain 9 (MYH9) in SK-BR-3 cells (from UniProt P35579 1-1960)”, the binding entry in test [1] is “binds”.

B1: BRSK2, endogenous in SK-BR-3 cells (protein, UniProt Q8IWQ3 1-736)
chain: MTSTGKDGGAQHAQYVGPYRLEKTLGKGQTGLVKLGVHCVTCQKVAIKIVNREKLSESVLMKVEREIAILKLIEHPHVLKLHDVYENKKYLYLVLEHVSGGELFDYLVKKGRLTPKEARKFFRQIISALDFCHSHSICHRDLKPENLLLDEKNNIRIADFGMASLQVGDSLLETSCGSPHYACPEVIRGEKYDGRKADVWSCGVILFALLVGALPFDDDNLRQLLEKVKRGVFHMPHFIPPDCQSLLRGMIEVDAARRLTLEHIQKHIWYIGGKNEPEPEQPIPRKVQIRSLPSLEDIDPDVLDSMHSLGCFRDRNKLLQDLLSEEENQEKMIYFLLLDRKERYPSQEDEDLPPRNEIDPPRKRVDSPMLNRHGKRRPERKSMEVLSVTDGGSPVPARRAIEMAQHGQRSRSISGASSGLSTSPLSSPRVTPHPSPRGSPLPTPKGTPVHTPKESPAGTPNPTPPSSPSVGGVPWRARLNSIKNSFLGSPRFHRRKLQVPTPEEMSNLTPESSPELAKKSWFGNFISLEKEEQIFVVIKDKPLSSIKADIVHAFLSIPSLSHSVISQTSFRAEYKATGGPAVFQKPVKFQVDITYTEGGEAQKENGIYSVTFTLLSGPSRRFKRVVETIQAQLLSTHDPPAAQHLSDTTNCMEMMTGRLSKCGSPLSNFFDVIKQLFSDEKNGQAAQAPSTPAKRSAHGPLGDSAAAGPGPGGDAEYPTGKDTAKMGPPTARREQP
Regarding B1, the figures for the binding entry in test [2] and in test [3] were “binds” and “no binding”, respectively.

The values above are taken from PMC10949598.
